Reference: the supplement of paper PMC12823440, “Inhibitors supercharge kinase turnover through native proteolytic circuits” (Nature, 2025)
Where a name gives a salt, the structure may show the parent alone. Some of the results follow. Hit calls seldom repeat between salt and free forms of one compound.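 In K562 cells expressing nanoluciferase-fused kinases, luminescence was recorded at 4 h intervals between 2 and 18 h, normalized as percent of control with DMSO at 100% and a positive control at 0%. A significant (2 sigma) signal drop marks a time point as decreased. The authors' rule for a hit is not shown and takes in more than the number of time points.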

Sequences of proteins named here, by UniProt entry; tags and fusion partners are left off. A change or cut given only in a name is not applied to a line headed by its entry.
UniProt P48729: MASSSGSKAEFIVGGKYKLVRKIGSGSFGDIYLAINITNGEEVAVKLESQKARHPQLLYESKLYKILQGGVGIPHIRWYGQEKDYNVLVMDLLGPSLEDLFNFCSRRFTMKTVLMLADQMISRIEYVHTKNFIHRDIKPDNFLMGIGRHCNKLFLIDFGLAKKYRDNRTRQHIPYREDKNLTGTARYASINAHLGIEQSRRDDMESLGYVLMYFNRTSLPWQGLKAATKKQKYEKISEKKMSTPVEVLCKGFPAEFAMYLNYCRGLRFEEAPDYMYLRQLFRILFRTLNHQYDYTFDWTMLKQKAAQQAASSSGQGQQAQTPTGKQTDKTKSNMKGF

What follows are molecules tested against CSNK1A1 (UniProt P48729) (assay: number of time points (of 5) at which kinase-Nluc abundance scored as decreased, DMSO-normalised (count); higher = more persistent destabilization). Conditions: K562; 2-18 h.

`Cn1cnc2c(F)c(Nc3ccc(Br)cc3Cl)c(C(=O)NOCCO)cc21` [Selumetinib (sulfate)] (10 µM) and `O=C(NOCC(O)CO)c1cc(Br)c(F)c(F)c1Nc1ccc(I)cc1F` (configuration not stated) (2.5 µM) are the same in “number of time points” value: 0 for the first, 0 for the second.

Going from `COc1ncc(Cl)cc1S(=O)(=O)Nc1ccc(F)c(C#Cc2cnc(N)nc2)c1F` (2.5 µM) to `COc1ccc(Cl)c(Nc2nc3ccccc3nc2NS(=O)(=O)c2cccc(NC(=O)C(C)(C)N)c2)c1` [Pilaralisib] (10 µM), the “number of time points” value falls from 5 to 0.

`CNC(=O)c1cc(COc2nnc(Nc3ccc(Cl)cc3)c3ccoc23)ccn1` [Telatinib] (10 µM) and `Oc1ccc(Nc2nc(-c3ccc(Cl)cc3)cs2)cc1` (10 µM) are the same in “number of time points” value: 0 for the first, 0 for the second.

`CC(C)(C)c1cc(O)ccc1O` (10 µM) and `COc1cccc(OC)c1C(=O)OCc1cc(O)ccc1O[C@@H]1O[C@H](CO)[C@@H](O)[C@H](O)[C@H]1O` [Curculigoside] (10 µM) are the same in “number of time points” value: 0 for the first, 0 for the second.

`Cn1cnc2c(F)c(Nc3ccc(Br)cc3Cl)c(C(=O)NOCCO)cc21` [Selumetinib] (10 µM) and `Cn1nccc1Nc1nccc(-c2ccn([C@H](CO)c3ccc(Cl)c(F)c3)c(=O)c2)n1` [Ravoxertinib hydrochloride] (10 µM) are the same in “number of time points” value: 0 for the first, 0 for the second.

`Cc1c(-c2c(F)cc(C(N)=O)c3[nH]c4c(c23)CC[C@H](C(C)(C)O)C4)cccc1-n1c(=O)c2cccc(F)c2n(C)c1=O` (2.5 µM) and `CCC(C)N1c2ccccc2C(=O)N(C)c2cnc(Nc3ccc(C(=O)N4CCC(N5CCN(C)CC5)CC4)cc3OC)nc21` (configuration not stated) (2.5 µM) are the same in “number of time points” value: 0 for the first, 0 for the second.

`O=C(CSC1=NCCN1)NC1CCCCCC1` [ICCB-19 (hydrochloride)] (2.5 µM) and `C[C@@H]1CCN(C(=O)CC#N)C[C@@H]1N(C)c1ncnc2[nH]ccc12` [Tofacitinib (citrate)] (10 µM) are the same in “number of time points” value: 0 for the first, 0 for the second.

`Cn1cc(-c2ccc3nnc(Sc4ccc5ncccc5c4)n3n2)cn1` (10 µM) and `NC(=O)c1ccc(-c2nc(-c3ccc4c(c3)OCCO4)c(-c3ccccn3)[nH]2)cc1` (10 µM) are the same in “number of time points” value: 0 for the first, 0 for the second.

`Cc1ccccc1-c1c2nccc(-c3ccc(F)cc3F)c2cc[n+]1[O-]` (10 µM) and `FC(F)(F)c1ccc(CNc2ccc(Cc3c[nH]c4ncccc34)cn2)cc1` (10 µM) are the same in “number of time points” value: 0 for the first, 0 for the second.

`OCCn1cc(-c2ccc3c(c2)CC/C3=N\O)c(-c2ccncc2)n1` (10 µM) and `CN(C)CCCOc1ccc(-c2ccc3ncc4c(c3c2)n(C2CCOCC2)c(=O)n4C)cn1` (2 µM) are the same in “number of time points” value: 0 for the first, 0 for the second.

`Cc1[nH]c(/C=C2\C(=O)Nc3ccccc32)c(C)c1CCC(=O)O` [Orantinib] (10 µM) and `O=C(O)CCC(=O)Nc1ccc(Br)cn1` [Bikinin] (10 µM) are the same in “number of time points” value: 0 for the first, 0 for the second.

`NC(=O)c1nnc(N[C@@H]2CCCC[C@@H]2N)nc1Nc1cccc2cc[nH]c12` (10 µM) and `C[C@@H]1CCN(C(=O)CC#N)C[C@@H]1N(C)c1ncnc2[nH]ccc12` [Tofacitinib] (10 µM) are the same in “number of time points” value: 0 for the first, 0 for the second.

`CN(C)CCSSCCNC(=O)C1CCN(C(=O)CSc2ccc(Cl)cc2)CC1` (10 µM) and `O=C(NCCN1CCCC1)c1cc(-c2ccc(CN3CCOCC3)cc2)nc2ccc(F)cc12` (10 µM) are the same in “number of time points” value: 0 for the first, 0 for the second.

`COc1ccc(-c2ccc3c(N4CCOCC4)nc(N4C[C@@H](C)O[C@@H](C)C4)nc3n2)cc1CO` (2.5 µM) and `Nc1cc(C(F)(F)F)c(-c2cc(N3CCOCC3)nc(N3CCOCC3)n2)cn1` [Buparlisib (Hydrochloride)] (2.5 µM) are the same in “number of time points” value: 0 for the first, 0 for the second.

`CC#CC(=O)N1CC[C@@H](n2c(=O)n(-c3ccc(Oc4ccccc4)cc3)c3c(N)ncnc32)C1` [Tirabrutinib (hydrochloride)] (10 µM) and `Cc1nc(-c2cn3c(n2)-c2ccc(-c4cnn(C(C)(C)C(N)=O)c4)cc2OCC3)n(C(C)C)n1` [Taselisib] (10 µM) are the same in “number of time points” value: 0 for the first, 0 for the second.

`CCc1cc2c(cc1N1CCC(N3CCOCC3)CC1)C(C)(C)c1[nH]c3cc(C#N)ccc3c1C2=O` [Alectinib] (10 µM) and `COc1cc(Nc2ncc(F)c(Nc3ccc4c(n3)N(COP(=O)(O)O)C(=O)C(C)(C)O4)n2)cc(OC)c1OC` [Fostamatinib (disodium hexahydrate)] (10 µM) are the same in “number of time points” value: 0 for the first, 0 for the second.
